This is an account of results in paper PMC3325275.

By UniProt entry, the sequences of proteins in these tests, tags left out. Where a name states a change or a piece, a line headed by the entry shows the natural chain unless it says otherwise. Chains listed by the source or under a name are the forms on record and can include a tag or linker.
UniProt P60849, other isoform, or with tags, fused parts or gaps: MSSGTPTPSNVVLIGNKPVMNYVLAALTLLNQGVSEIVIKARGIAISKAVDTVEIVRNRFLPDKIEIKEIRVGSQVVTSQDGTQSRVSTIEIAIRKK
UniProt O27527: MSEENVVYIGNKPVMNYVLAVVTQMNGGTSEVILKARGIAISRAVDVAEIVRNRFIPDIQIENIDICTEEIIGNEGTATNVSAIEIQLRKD

Test in all cases: SPR
Background: SPR reads the build-up and loss of mass on a sensor chip optically.

The target in series [1] is Sso10b wild type (Sulfolobus solfataricus) (UniProt P60849). To be noted: 0.3 M NaCl, about 120 RU at 1 uM, non-specific chip interaction; SPR (BIAcore 3000, SA chip): 20 mM Tris, 1 mM EDTA, 0.005% Tween20, pH 7.5, with 0, 0.1 or 0.3 M NaCl, 25°C; recombinant protein; label: 5'-biotin on forward strand; probe letters rebuilt from the primers and the genome.
For series [2], the target named is Sso10b K16NR44IR83T (Sulfolobus solfataricus) (UniProt P60849). The settings on record: 0.3 M NaCl, almost no response at 100 uM, non-specific chip interaction; SPR (BIAcore 3000, SA chip): 20 mM Tris, 1 mM EDTA, 0.005% Tween20, pH 7.5, with 0, 0.1 or 0.3 M NaCl, 25°C; recombinant protein; label: 5'-biotin on forward strand; probe letters rebuilt from the primers and the genome.

Series [3] has as its target T1, Mth10b N11KI39RT77R (Methanobacterium thermoautotrophicum ΔH) (UniProt O27527).
T1 sequence (looked up): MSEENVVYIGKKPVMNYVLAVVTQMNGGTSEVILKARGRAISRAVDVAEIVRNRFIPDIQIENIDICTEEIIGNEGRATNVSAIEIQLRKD
The settings on record: 0.3 M NaCl, high cooperativity; SPR (BIAcore 3000, SA chip): 20 mM Tris, 1 mM EDTA, 0.005% Tween20, pH 7.5, with 0, 0.1 or 0.3 M NaCl, 25°C; recombinant …; residues 1-91; label: 5'-biotin on forward strand; probe letters rebuilt from the primers and the genome.

Series [4] concerns the target T2, Mth10b T77R (Methanobacterium thermoautotrophicum ΔH) (UniProt O27527).
T2 sequence (looked up): T1 sequence (looked up) with K11N, R39I
To be noted: 0.1 M NaCl, only 18.0 RU at 100 uM; SPR (BIAcore 3000, SA chip): 20 mM Tris, 1 mM EDTA, 0.005% Tween20, pH 7.5, with 0, 0.1 or 0.3 M NaCl, 25°C; recombinant protein; residues 1-91; label: 5'-biotin on forward strand; probe letters rebuilt from the primers and the genome.

Positions count from the first letter of the chain named. For at least one entry, the source does not settle the construct or the ends of the probe. For some of these results: A negative result means that nothing was seen under these conditions. For some of these results: Weaker means in comparison with the reference protein, sequence or condition of that experiment. For some of these results: Protein sequences can lack the tags named with them. For some of these results: Whether high values mean tight binding is not given here for every scale.

For “GTGATGTCAGAGGAGAATGTAGTATACATCGGAAACAAGCCTGTAATGAACTATGTTCTGGCCGTGGTTACTCAGATGAACGGTGGGACCAGTGAAGTGATCCTTAAAGC (double strand) [110 bp mth10b fragment]”, the values for the binding result in series [1], in series [2] and in series [4] were “binds”, “no binding” and “binds more weakly”, respectively. The binding signal (fold lower affinity than in 0.1 M NaCl) in series [3] came to 70.
